The target in the assay is GST-17NAnk (GST-tagged N-terminal (1–305) zDHHC17) (murine) (UniProt Q80TN5). The assay is described as follows: affinity purification with mass spectrometry; GST-17NAnk pulldown of rat brain proteins, SDS-PAGE, Coomassie; gel slices with bands missing from control GST pulldowns identified by mass spectrometry; only the target purified.

The chains behind the UniProt entries cited, without tags or fusion partners. Residues count along the entry.
UniProt Q80TN5, residues 1-305: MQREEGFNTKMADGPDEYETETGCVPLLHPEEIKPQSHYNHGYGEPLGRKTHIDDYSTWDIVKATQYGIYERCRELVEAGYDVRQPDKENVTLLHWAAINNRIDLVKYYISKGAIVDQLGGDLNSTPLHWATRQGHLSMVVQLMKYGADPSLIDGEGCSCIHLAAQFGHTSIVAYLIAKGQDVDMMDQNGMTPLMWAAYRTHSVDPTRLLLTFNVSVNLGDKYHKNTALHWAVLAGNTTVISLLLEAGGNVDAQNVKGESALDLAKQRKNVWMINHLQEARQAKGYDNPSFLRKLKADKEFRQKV

In PMC4571948 one finds binding data, which are given here for one molecule.

No constants are given. Whether binding was seen depends on the method and setting. Binding seen in cells or lysates may run through a third protein. Here binding means that the protein was enriched with, or labelled near, the bait; the list need not be complete.

B1: rat MAP6 (from rat brain proteins) (protein, UniProt Q63560 1-952)
chain: MAWPCITRACCIARFWNQLDKADIAVPLVFTKYSEATEHPGAPPQPPAPPQPGLAPPSRAVAIETQPAQGESDAVARATGPAPGPSGDRETAAAPGRSGLGLGAASGSTSGSGPADSVMRQDYRAWKVQRPEPSCRPRSEYQPSDAPFERETQYQKDFRAWPLPRRGDHPWIPKPVQIPATSQPSPPVLGMPKRRPQSQERGPIQLSADARDPEGAGGAGVPAAGKASGADQRDTRRKAGPAWMVTRTEGHEEKPLPPAQSQTQEGGPAAGKASGADQRDTRRKAGPAWMVTRTEGHEEKPLPPAQSQTQEGGPAAGKASGADQRDTRRKAGPAWMVTRTEGHEETPLPPAQSQTQEGGPAAGKASGADQRDTRRKAGPAWMVTRTEGHEETPLPPAQSQTQEGGPAAGKASGADERDTRRKAGPAWMVRRSEGHEQTTAAHAQGTGPEGGKGRAVADALNRQIREEVTSTVSSSYRNEFRAWTDIKPVKPIKAKPQYKPPDDKMVHETSYSAQFKGEASKPTTADNKVVDRRRIRSLYSEPFKESPKVEKPSVQSSKPKKTSTSQKPLRKAKDKQVASGQAAKKKTTESPSATKPDDKEQSKEMNNKLAEAKESRVKPTSDKNQGPVAKEPHKDQGPVAPGLPKGQGPAVQEPLKDQGPMVPGLPKDQAPVVPGSLKGQSPTAPGPPKDQGAVLLGPMKDLGPVAPASVKDQDHMASELLKNKDSVPLAPAKAQSPLLPEPLKNQSPVVPARAKDQSFPAPAPTPLKDPGPVIPEPEKDGAPMVPERRKDQNASIMASLKNEAPVASESVKNQGLGGPEPAKDTGTDLKGHGSVFVAPVKSQGPVVPEPTKGQDPIIPALAKDQGPILPEPPKNQGPPVVLGPIKNQDPVIPVPLKGQDPVVPAPTKDPGPTAPDPLKSQGPRGPQLPTVSPSPPVMIPTVPHAEYIEGSP
For B1, the binding entry is “binds”.
